Results reported in US11723891B2, “Drug combinations for use in the treatment of RAS-mutant cancer” (UMC Utrecht Holding B.V., priority 2018, dated 2023).
Some results were stated once for a whole list of compounds, not compound by compound.

Test system: Tumor organoids from colorectal cancer containing a Kras12D oncogenic mutation
Assay: Synthetic lethality drug screen with afatinib + selumetinib anchor, apoptosis by semi-automated imaging
Type: cell-based, human
Details: hits of the screen at cut-off point
Method: Tumor organoids from colorectal cancer containing a Kras12D oncogenic mutation were treated for three days, with different concentrations of one of a 420 anti-cancer compound library (SellectChem), in the presence and absence of a combination of 1 μM selumetinib and 1 μM afatinib to inhibit MEK, EGFR and ERBB2. The induction of apoptosis was measured by semi-automated imaging.
Organoids were treated with 1 μM selumetinib and 1 μM afatinib, together with 5 nM-20 μM of one of the 420 compounds from the anti-cancer compound library of SellectChem in 384-well plates. After three days the amount of apoptosis was measured by semi-automated imaging.

Row | Compound | ΔIC50 cut-off: apoptosis induced in the presence of selumetinib and afatinib at a lower concentration than in their absence
1 | CCC1=C[C@@H]2CN(C1)Cc1c([nH]c3ccccc13)[C@@](C(=O)OC)(c1cc3c(cc1OC)N(C)[C@H]1[C@@](O)(C(=O)OC)[C@H](OC(C)=O)[C@]4(CC)C=CCN5CC[C@]31[C@@H]54)C2 [Vinorelbine] | at least 100 fold
2 | COc1cc(OC)c(/C=C/S(=O)(=O)Cc2ccc(OC)c(NCC(=O)O)c2)c(OC)c1 [Rigosertib] | at least 100 fold
3 | CC(=O)O[C@H]1C(=O)[C@@]2(C)[C@H]([C@H](OC(=O)c3ccccc3)[C@]3(O)C[C@H](OC(=O)[C@H](O)[C@@H](NC(=O)c4ccccc4)c4ccccc4)C(C)=C1C3(C)C)[C@]1(OC(C)=O)CO[C@@H]1C[C@@H]2O [Paclitaxel] | at least 100 fold
